Measured values taken from US20140199714A1, “METHOD FOR DETECTING CANCER CELLS METASTASIZING INTO SENTINEL LYMPH NODE” (SHINSHU UNIVERSITY, priority 2008, published 2014).

Assay: ATP assay (luciferin-luciferase)

Which results are given for `Nc1ncnc2c1ncn2[C@@H]1O[C@H](COP(=O)(O)OP(=O)(O)OP(=O)(O)O)[C@@H](O)[C@H]1O` [ATP]?
Relative Luminescence Intensity (culture medium with ATP 10^−6 M): 67462.0 ± 947.1; Relative Luminescence Intensity (culture medium with ATP 10^−7 M): 9679.0 ± 1193.2; Relative Luminescence Intensity (culture medium with ATP 10^−8 M): 1138.5 ± 47.5
